Five molecules from PMC4451736 can be followed below.

These are yes or no findings as the source states them, for the method shown. A result given as binding can be weak or reduced; the word gives no strength.

In assay [1] the target is T1, ARF5CTD (residues 767-901 of ARF5, bait in pDHB1) (Arabidopsis) (UniProt P93024).
T1 sequence: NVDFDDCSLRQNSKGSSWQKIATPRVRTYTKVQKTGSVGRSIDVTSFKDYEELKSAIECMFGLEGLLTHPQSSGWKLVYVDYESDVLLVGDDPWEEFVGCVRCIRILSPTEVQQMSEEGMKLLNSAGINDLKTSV
Briefly: two-hybrid; split-ubiquitin system in yeast NMY51; ARF5CTD in bait vector pDHB1, PtrIAA14.1 in prey vector pPR3-N; growth on SD-trp-leu-his; empty bait and empty prey as controls.

Assay [2] deals with GD-PtrIAA14.1CTD (residues 131-248 of PtrIAA14.1 fused to the GAL4 DNA binding domain) (Populus trichocarpa). Briefly: two-hybrid; Arabidopsis protoplast transfection; GD-PtrIAA14.1CTD cotransfected with ARF activators and the Gal4:GUS reporter; GUS activity after 20-22 h; CAT as control.

Turning to “PtrIAA14.1 (full-length, prey in pPR3-N) (Populus trichocarpa)”, the binding entry in assay [1] is given as “binds”.

B1: ARF6 (effector in protoplasts) (protein, UniProt Q9ZTX8 1-935)
chain: MRLSSAGFNPQPHEVTGEKRVLNSELWHACAGPLVSLPPVGSRVVYFPQGHSEQVAASTNKEVDAHIPNYPSLHPQLICQLHNVTMHADVETDEVYAQMTLQPLNAQEQKDPYLPAELGVPSRQPTNYFCKTLTASDTSTHGGFSVPRRAAEKVFPPLDYSQQPPAQELMARDLHDNEWKFRHIFRGQPKRHLLTTGWSVFVSAKRLVAGDSVLFIWNDKNQLLLGIRRANRPQTVMPSSVLSSDSMHLGLLAAAAHAAATNSRFTIFYNPRASPSEFVIPLAKYVKAVYHTRVSVGMRFRMLFETEESSVRRYMGTITGICDLDPTRWANSHWRSVKVGWDESTAGERQPRVSLWEIEPLTTFPMYPSPFPLRLKRPWPPGLPSFHGLKEDDMGMSMSSPLMWDRGLQSLNFQGMGVNPWMQPRLDTSGLLGMQNDVYQAMAAAALQDMRGIDPAKAAASLLQFQNSPGFSMQSPSLVQPQMLQQQLSQQQQQLSQQQQQQQQLSQQQQQQLSQQQQQQLSQQQQQQLSQQQQQQAYLGVPETHQPQSQAQSQSNNHLSQQQQQVVDNHNPSASSAAVVSAMSQFGSASQPNTSPLQSMTSLCHQQSFSDTNGGNNPISPLHTLLSNFSQDESSQLLHLTRTNSAMTSSGWPSKRPAVDSSFQHSGAGNNNTQSVLEQLGQSHTSNVPPNAVSLPPFPGGRECSIEQEGSASDPHSHLLFGVNIDSSSLLMPNGMSNLRSIGIEGGDSTTLPFTSSNFNNDFSGNLAMTTPSSCIDESGFLQSSENLGSENPQSNTFVKVYKSGSFGRSLDISKFSSYHELRSELARMFGLEGQLEDPVRSGWQLVFVDRENDVLLLGDDPWPEFVSSVWCIKILSPQEVQQMGKRGLELLNSAPSSNNVDKLPSNGNCDDFGNRSDPRNLGNGIASVGGSFNY
For B1, the binding entry in assay [2] is given as “no binding”.

B2: ARF5 (effector in protoplasts) (protein, UniProt P93024 1-902)
chain: MMASLSCVEDKMKTSCLVNGGGTITTTTSQSTLLEEMKLLKDQSGTRKPVINSELWHACAGPLVCLPQVGSLVYYFSQGHSEQVAVSTRRSATTQVPNYPNLPSQLMCQVHNVTLHADKDSDEIYAQMSLQPVHSERDVFPVPDFGMLRGSKHPTEFFCKTLTASDTSTHGGFSVPRRAAEKLFPPLDYSAQPPTQELVVRDLHENTWTFRHIYRGQPKRHLLTTGWSLFVGSKRLRAGDSVLFIRDEKSQLMVGVRRANRQQTALPSSVLSADSMHIGVLAAAAHATANRTPFLIFYNPRACPAEFVIPLAKYRKAICGSQLSVGMRFGMMFETEDSGKRRYMGTIVGISDLDPLRWPGSKWRNLQVEWDEPGCNDKPTRVSPWDIETPESLFIFPSLTSGLKRQLHPSYFAGETEWGSLIKRPLIRVPDSANGIMPYASFPSMASEQLMKMMMRPHNNQNVPSFMSEMQQNIVMGNGGLLGDMKMQQPLMMNQKSEMVQPQNKLTVNPSASNTSGQEQNLSQSMSAPAKPENSTLSGCSSGRVQHGLEQSMEQASQVTTSTVCNEEKVNQLLQKPGASSPVQADQCLDITHQIYQPQSDPINGFSFLETDELTSQVSSFQSLAGSYKQPFILSSQDSSAVVLPDSTNSPLFHDVWDTQLNGLKFDQFSPLMQQDLYASQNICMSNSTTSNILDPPLSNTVLDDFCAIKDTDFQNHPSGCLVGNNNTSFAQDVQSQITSASFADSQAFSRQDFPDNSGGTGTSSSNVDFDDCSLRQNSKGSSWQKIATPRVRTYTKVQKTGSVGRSIDVTSFKDYEELKSAIECMFGLEGLLTHPQSSGWKLVYVDYESDVLLVGDDPWEEFVGCVRCIRILSPTEVQQMSEEGMKLLNSAGINDLKTSVS
Regarding B2, in assay [2], the binding entry is “binds”.

B3: ARF19 (effector in protoplasts) (protein, UniProt Q8RYC8 1-1086)
chain: MKAPSNGFLPSSNEGEKKPINSQLWHACAGPLVSLPPVGSLVVYFPQGHSEQVAASMQKQTDFIPNYPNLPSKLICLLHSVTLHADTETDEVYAQMTLQPVNKYDREALLASDMGLKLNRQPTEFFCKTLTASDTSTHGGFSVPRRAAEKIFPPLDFSMQPPAQEIVAKDLHDTTWTFRHIYRGQPKRHLLTTGWSVFVSTKRLFAGDSVLFVRDEKSQLMLGIRRANRQTPTLSSSVISSDSMHIGILAAAAHANANSSPFTIFFNPRASPSEFVVPLAKYNKALYAQVSLGMRFRMMFETEDCGVRRYMGTVTGISDLDPVRWKGSQWRNLQVGWDESTAGDRPSRVSIWEIEPVITPFYICPPPFFRPKYPRQPGMPDDELDMENAFKRAMPWMGEDFGMKDAQSSMFPGLSLVQWMSMQQNNPLSGSATPQLPSALSSFNLPNNFASNDPSKLLNFQSPNLSSANSQFNKPNTVNHISQQMQAQPAMVKSQQQQQQQQQQHQHQQQQLQQQQQLQMSQQQVQQQGIYNNGTIAVANQVSCQSPNQPTGFSQSQLQQQSMLPTGAKMTHQNINSMGNKGLSQMTSFAQEMQFQQQLEMHNSSQLLRNQQEQSSLHSLQQNLSQNPQQLQMQQQSSKPSPSQQLQLQLLQKLQQQQQQQSIPPVSSSLQPQLSALQQTQSHQLQQLLSSQNQQPLAHGNNSFPASTFMQPPQIQVSPQQQGQMSNKNLVAAGRSHSGHTDGEAPSCSTSPSANNTGHDNVSPTNFLSRNQQQGQAASVSASDSVFERASNPVQELYTKTESRISQGMMNMKSAGEHFRFKSAVTDQIDVSTAGTTYCPDVVGPVQQQQTFPLPSFGFDGDCQSHHPRNNLAFPGNLEAVTSDPLYSQKDFQNLVPNYGNTPRDIETELSSAAISSQSFGIPSIPFKPGCSNEVGGINDSGIMNGGGLWPNQTQRMRTYTKVQKRGSVGRSIDVTRYSGYDELRHDLARMFGIEGQLEDPLTSDWKLVYTDHENDILLVGDDPWEEFVNCVQNIKILSSVEVQQMSLDGDLAAIPTTNQACSETDSGNAWKVHYEDTSAAASFNR
Take B3: the binding entry in assay [2] was “no binding”.

B4: ARF8 (effector in protoplasts) (protein, UniProt Q9FGV1 1-811)
chain: MKLSTSGLGQQGHEGEKCLNSELWHACAGPLVSLPSSGSRVVYFPQGHSEQVAATTNKEVDGHIPNYPSLPPQLICQLHNVTMHADVETDEVYAQMTLQPLTPEEQKETFVPIELGIPSKQPSNYFCKTLTASDTSTHGGFSVPRRAAEKVFPPLDYTLQPPAQELIARDLHDVEWKFRHIFRGQPKRHLLTTGWSVFVSAKRLVAGDSVIFIRNEKNQLFLGIRHATRPQTIVPSSVLSSDSMHIGLLAAAAHASATNSCFTVFFHPRASQSEFVIQLSKYIKAVFHTRISVGMRFRMLFETEESSVRRYMGTITGISDLDSVRWPNSHWRSVKVGWDESTAGERQPRVSLWEIEPLTTFPMYPSLFPLRLKRPWHAGTSSLPDGRGDLGSGLTWLRGGGGEQQGLLPLNYPSVGLFPWMQQRLDLSQMGTDNNQQYQAMLAAGLQNIGGGDPLRQQFVQLQEPHHQYLQQSASHNSDLMLQQQQQQQASRHLMHAQTQIMSENLPQQNMRQEVSNQPAGQQQQLQQPDQNAYLNAFKMQNGHLQQWQQQSEMPSPSFMKSDFTDSSNKFATTASPASGDGNLLNFSITGQSVLPEQLTTEGWSPKASNTFSEPLSLPQAYPGKSLALEPGNPQNPSLFGVDPDSGLFLPSTVPRFASSSGDAEASPMSLTDSGFQNSLYSCMQDTTHELLHGAGQINSSNQTKNFVKVYKSGSVGRSLDISRFSSYHELREELGKMFAIEGLLEDPLRSGWQLVFVDKENDILLLGDDPWESFVNNVWYIKILSPEDVHQMGDHGEGSGGLFPQNPTHL
With B4, the binding result in assay [2] is “no binding”.
